This experiment concerns the target TGFβ. As to the kind of experiment: ELISA, fragment coated at 10 µg/ml, bound TGFβ detected with anti-TGFβ antibody. In general terms: In an ELISA, binding on a coated surface is turned into a signal by an enzyme label.

These are yes or no findings as the source states them, for the method shown. A result given as binding can be weak or reduced; the word gives no strength.

B1: CTGF fragment encoded by exon 3 (protein)
chain: AKDGAPCIFGGTVYRSGESFQSSCKYQCTCLDGAVGCMPLCSMDVRLPSPDCPFPRRVKLPGKCCEEWVCDEPKDQTVVGPALA
For B1, the binding entry is reported as “binds”.

The values above are taken from US20040248206A1 (FIBROGEN, published 2004).
